PubChem BioAssay AID1259286 – Sanger Institute | 2017
Test: 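Kinase knock-downs that reduce colorectal cancer cell viability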 (primary screen). Cell system: NCI-H630 human colorectal cancer cells. Reagents: siRNA pool against human genes. Conditions: anchor drugs BYL719 at 1 µM, cetuximab at 5 µg/ml or trametinib at 10 nM, or DMSO vehicle alone; exposure time not given. Measured: 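Viability relative to non-targeting pool wells, averaged over replicates, with robust z-score for knock-down alone and a synergy score for each anchor drug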. Direction: viability z-score, knock-down alone: higher = more viable cells, weaker knock-down effect; viability vs control, knock-down alone: higher = more viable cells. Units: viability vs control, knock-down alone in fraction of control. Call rule: 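Essential call: robust z-score of viability with siRNA alone lower than -3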. Meaning of the calls: active = essential when knocked down alone; inactive = not essential alone.
Shown is one part, drawn at random, of 794 reagents tested. Over the whole deposit, 17 (2.1%) were called active. 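Calls use knock-down alone only; synergy above 0.15 marked separately; viability seems capped at control level; exposure time not given.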 Not all columns of the deposit are shown. Not given: the amount of reagent, the time to read-out.

What did the screen give for DNMT3A (DNA methyltransferase 3 alpha)?
viability z-score, knock-down alone: 0.168; viability vs control, knock-down alone: 0.989; outcome: inactive

For MET (MET proto-oncogene, receptor tyrosine kinase), how do the results read?
viability z-score, knock-down alone: 0.464; viability vs control, knock-down alone: 1; outcome: inactive

With PDGFRA (platelet derived growth factor receptor alpha), what does the deposit list?
viability z-score, knock-down alone: 0.464; viability vs control, knock-down alone: 1; outcome: inactive

With NUP62 (nucleoporin 62), what does the deposit list?
viability z-score, knock-down alone: -1.36; viability vs control, knock-down alone: 0.931; outcome: inactive

For AKT2 (AKT serine/threonine kinase 2), how do the results read?
viability z-score, knock-down alone: 0.464; viability vs control, knock-down alone: 1; outcome: inactive

What is on record for THNSL1 (threonine synthase like 1)?
viability z-score, knock-down alone: 0.464; viability vs control, knock-down alone: 1; outcome: inactive

For CDK5R1 (cyclin dependent kinase 5 regulatory subunit 1), how do the results read?
viability z-score, knock-down alone: -0.941; viability vs control, knock-down alone: 0.947; outcome: inactive

For KIT (KIT proto-oncogene, receptor tyrosine kinase), what was measured?
viability z-score, knock-down alone: 0.464; viability vs control, knock-down alone: 1; outcome: inactive

With CREBBP (CREB binding lysine acetyltransferase), what does the deposit list?
viability z-score, knock-down alone: -2; viability vs control, knock-down alone: 0.907; outcome: inactive

For MAP3K13 (mitogen-activated protein kinase kinase kinase 13), what was measured?
viability z-score, knock-down alone: 0.464; viability vs control, knock-down alone: 1; outcome: inactive

What is on record for MAP2K1 (mitogen-activated protein kinase kinase 1)?
viability z-score, knock-down alone: 0.445; viability vs control, knock-down alone: 0.999; outcome: inactive

Which result is listed for PRKAG2 (protein kinase AMP-activated non-catalytic subunit gamma 2)?
viability z-score, knock-down alone: 0.464; viability vs control, knock-down alone: 1; outcome: inactive

How did the screen score APC (APC regulator of Wnt signaling pathway)?
viability z-score, knock-down alone: 0.464; viability vs control, knock-down alone: 1; outcome: inactive

Copied from the list.
Entry of PDGFRA (platelet derived growth factor receptor alpha) under “viability vs control, knock-down alone”: 1
Value for MAP3K13 (mitogen-activated protein kinase kinase kinase 13) in “outcome”: inactive
